Source: PubChem BioAssay AID1508597 (Cure First, 2020)
Shown is an unselected part of the about 2,100 reagents, under one of the conditions tested. 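Calls flag viability under 80% in either arm, not effects specific to rucaparib; the reference for percent is not stated.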 A reagent listed more than once was tested more than once; the source does not tell the runs apart. The record does not give: the 100% reference.

- Assay: 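Survival screen with siRNA in ovarian cancer cells derived from patients, with or without rucaparib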 (primary screen)
- Cell system: human ovarian carcinoma lines grown from tumours: OCI-P5x (papillary serous) and OCI-C5x (clear cell)
- Reagent: siRNA pool against human genes, 1.25 pmol siRNA per well
- Timing: 72 h or 96 h, depending on the cell culture
- Treatment: rucaparib 20 µM (about IC30) or vehicle, present until read-out
- Rucaparib or vehicle: Vehicle
- Cell line: OCI-C5x (clear cell)
- Read-out: 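Luminescent ATP-based viability assay read 72 or 96 h after transfection, depending on culture, given as normalised percent viability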
- Reading the numbers: viability, normalised: higher = more viable cells remaining
- Hit rule: 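a well counts as a hit if its normalised viability is under 80 percent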
- Meaning of the calls: active = viability under 80%; inactive = viability 80% or more

EIF2AK2 (eukaryotic translation initiation factor 2 alpha kinase 2), technical replicate 1 — viability, normalised (%) = 29.8; call = active
EIF2AK2 (eukaryotic translation initiation factor 2 alpha kinase 2), technical replicate 2 — viability, normalised (%) = 40.8; call = active
EIF2AK2 (eukaryotic translation initiation factor 2 alpha kinase 2), technical replicate 3 — viability, normalised (%) = 40.2; call = active
SUMO1 (small ubiquitin like modifier 1), technical replicate 1 — viability, normalised (%) = 41.2; call = active
SUMO1 (small ubiquitin like modifier 1), technical replicate 2 — viability, normalised (%) = 70.3; call = active
SUMO1 (small ubiquitin like modifier 1), technical replicate 3 — viability, normalised (%) = 31.6; call = active
XRCC6 (X-ray repair cross complementing 6), technical replicate 1 — viability, normalised (%) = 54.9; call = active
XRCC6 (X-ray repair cross complementing 6), technical replicate 2 — viability, normalised (%) = 52.4; call = active
XRCC6 (X-ray repair cross complementing 6), technical replicate 3 — viability, normalised (%) = 31.7; call = active
NRBP1 (nuclear receptor binding protein 1), technical replicate 1 — viability, normalised (%) = 59.6; call = active
NRBP1 (nuclear receptor binding protein 1), technical replicate 2 — viability, normalised (%) = 55.1; call = active
NRBP1 (nuclear receptor binding protein 1), technical replicate 3 — viability, normalised (%) = 50.4; call = active
CSMD3 (CUB and Sushi multiple domains 3), technical replicate 1 — viability, normalised (%) = 71.5; call = active
CSMD3 (CUB and Sushi multiple domains 3), technical replicate 2 — viability, normalised (%) = 64.7; call = active
CSMD3 (CUB and Sushi multiple domains 3), technical replicate 3 — viability, normalised (%) = 65.1; call = active
ULK2 (unc-51 like autophagy activating kinase 2), technical replicate 1 — viability, normalised (%) = 47.2; call = active
ULK2 (unc-51 like autophagy activating kinase 2), technical replicate 2 — viability, normalised (%) = 47.3; call = active
ULK2 (unc-51 like autophagy activating kinase 2), technical replicate 3 — viability, normalised (%) = 42.4; call = active
KIF4A (kinesin family member 4A), technical replicate 1 — viability, normalised (%) = 45.5; call = active
KIF4A (kinesin family member 4A), technical replicate 2 — viability, normalised (%) = 40.5; call = active
KIF4A (kinesin family member 4A), technical replicate 3 — viability, normalised (%) = 42; call = active
SIRT3 (sirtuin 3), technical replicate 1 — viability, normalised (%) = 30.2; call = active
SIRT3 (sirtuin 3), technical replicate 2 — viability, normalised (%) = 29.4; call = active
SIRT3 (sirtuin 3), technical replicate 3 — viability, normalised (%) = 45.7; call = active
USP28 (ubiquitin specific peptidase 28), technical replicate 1 — viability, normalised (%) = 71.6; call = active
USP28 (ubiquitin specific peptidase 28), technical replicate 2 — viability, normalised (%) = 56.6; call = active
USP28 (ubiquitin specific peptidase 28), technical replicate 3 — viability, normalised (%) = 53.5; call = active
DDB2 (damage specific DNA binding protein 2), technical replicate 1 — viability, normalised (%) = 49.3; call = active
DDB2 (damage specific DNA binding protein 2), technical replicate 1 — viability, normalised (%) = 96.6; call = inactive
DDB2 (damage specific DNA binding protein 2), technical replicate 1 — viability, normalised (%) = 33.9; call = active
DDB2 (damage specific DNA binding protein 2), technical replicate 2 — viability, normalised (%) = 31.2; call = active
DDB2 (damage specific DNA binding protein 2), technical replicate 2 — viability, normalised (%) = 64.2; call = active
DDB2 (damage specific DNA binding protein 2), technical replicate 2 — viability, normalised (%) = 63; call = active
DDB2 (damage specific DNA binding protein 2), technical replicate 3 — viability, normalised (%) = 48.4; call = active
DDB2 (damage specific DNA binding protein 2), technical replicate 3 — viability, normalised (%) = 39.5; call = active
DDB2 (damage specific DNA binding protein 2), technical replicate 3 — viability, normalised (%) = 52; call = active
